We go through 2 molecules from US10702518B2, “TAF1 inhibitors for the therapy of cancer” (CeMM—Forschungszentrum für Molekulare Medizin GmbH, priority 2016, dated 2020).

In this test the test system is REDS3 cells. Nature of the test: RFP reporter expression in REDS3 cells (live cell imaging). It counts as cell-based, human. The procedure:
Cells were seeded on clear flat bottom 96-well or 384-well plates (Corning) and treated with the indicated compounds for the specified conditions. Live cell imaging pictures were taken with the Operetta High Content Screening System (PerkinElmer), 20× objective and non-confocal mode.
Only RFP-positive nuclei were detected and counted.
The increase of RFP fluorescence, detected with the Operetta High Content Screening System (PerkinElmer), 20× objective and non-confocal mode, was used as read-out.
Briefly, the screening was divided in three parts called respectively 1) primary screening, 2) follow up and 3) validation. During the primary screening REDS3 cells were treated with 10 μM of every compound, and live cell imaging pictures were taken in order to assess their ability to induce RFP expression 24 hours later.

For `Cc1nnc2ccc(NCCC3=CCCCC3)nn12` [CeMMEC2], the “RFP expression in REDS3 cells” value is recorded as “expressed RFP detected by live cell imaging in a dose-dependent manner”.

Consider `CCNC(=O)C[C@@H]1N=C(c2ccc(Cl)cc2)c2cc(OC)ccc2-n2c(C)nnc21` [I-BET-762], for which the “confirmed screening hit (RFP induction in REDS3 screen)” value (library screen of 89,355 small molecules, 24 hours) is listed as “part of this group”.
